Data taken from patent US20060258748A1 (Chevron U.S.A. Inc., priority 2005, published 2006).

Test system: NMDA receptor
Assay: [3H]MK-801 binding assay, NMDA receptors in guinea pig brain membranes
Conditions: [3H]MK-801 competition; for Hill Slope (standard compounds): guinea pig brain membranes; for Hill Slope: guinea pig brain membrane preparation
Method: Hartley guinea pigs were sacrificed, and their brains were quickly removed and weighed. The brains then were homogenized in 50 mM Tris HCl buffer, pH 7.7, using a Polytron homogenizer. The homogenate was centrifuged at 40,000×g for 15 min, rehomogenized, and centrifuged again. The final pellet was resuspended in Tris-HCl, pH 7.7, at a final concentration of 6.67 mg original wet weight of tissue/ml. […] The samples were then filtered through glass fiber filters on a Tomtec cell harvester. The filters were washed 3 times with 3 ml of cold buffer. Filters were dried overnight and counted next day on a Wallac Betaplate Reader.
The binding experiments were conducted as follows. […] For each compound, graphs were prepared containing individual competition curves obtained for that compound. IC50 values and Hill coefficients were calculated using the program Prism. Ki values were calculated using the Chang Prusoff transformation: Ki═IC50/(1+L/Kd)
where L is radioligand concentration and Kd is the binding affinity of the radioligand, as determined previously by saturation analysis. […] In each experiment, one standard compound was simultaneously run on each 96 well plate.

Cl.NC12CC3CC(CC(C3)C1)C2 [Amantadine, 1-aminoadamantane hydrochloride, reference compound]
Hill Slope (standard compounds): 1.20 ± 0.45 (n = 2)

NC12CC3CC4C5CC(CC41)CC2C5C3 [MDT-1, 1-aminodiamantane]
Hill Slope: 1.40 ± 0.24

OC12CC3CC4C5CC(CC41)CC2C5C3 [MDT-10, 1-hydroxydiamantane]
Hill Slope: 0.54 ± 0.07

OC12CC3CC4C1CC1CC2C(C3)C4(O)C1 [MDT-12, 1,6-dihydroxydiamantane]
Hill Slope: 0.53 ± 0.13

O=C(O)C12CC3CC4C5CC(CC41)CC2C5C3 [MDT-17, 1-diamantane carboxylic acid]
Hill Slope: 1.09 ± 0.24

O=C(O)C12CC3CC4C1CC1CC2C(C3)C4(C(=O)O)C1 [MDT-19, 1,6-diamantane dicarboxylic acid]
Hill Slope: 0.81 ± 0.23

CC12CC3CC4C1CC1CC4[C@](N)(C3)C2C1 [MDT-22, 1-methyl-7-aminodiamantane]
Hill Slope: 0.47 ± 0.03

CC12CC3CC4C1CC1CC2C(N)(C3)C4(C)C1 (centres unmarked) [MDT-23, 1,6-dimethyl-2-aminodiamantane]
Hill Slope: 0.83 ± 0.00

CC12CC3CC(C)(C1)CC(N)(C3)C2 [Memantine, 1-amino-3,5-dimethyladamantane, reference compound]
Hill Slope: 0.95 ± 0.17
Hill Slope (standard compounds): 0.95 ± 0.17 (n = 3)

CN[C@H](CC(=O)O)C(=O)O [NMDA, N-methyl-D-aspartate, reference compound]
Hill Slope (standard compounds): 0.80 ± 0.04 (n = 2)
